# Measurements published in the supplement of paper PMC10849652.
# The chains behind the UniProt entries cited, without tags or fusion partners. Where a name states a change or a piece, a line headed by the entry shows the natural chain unless it says otherwise.
# UniProt Q96N66: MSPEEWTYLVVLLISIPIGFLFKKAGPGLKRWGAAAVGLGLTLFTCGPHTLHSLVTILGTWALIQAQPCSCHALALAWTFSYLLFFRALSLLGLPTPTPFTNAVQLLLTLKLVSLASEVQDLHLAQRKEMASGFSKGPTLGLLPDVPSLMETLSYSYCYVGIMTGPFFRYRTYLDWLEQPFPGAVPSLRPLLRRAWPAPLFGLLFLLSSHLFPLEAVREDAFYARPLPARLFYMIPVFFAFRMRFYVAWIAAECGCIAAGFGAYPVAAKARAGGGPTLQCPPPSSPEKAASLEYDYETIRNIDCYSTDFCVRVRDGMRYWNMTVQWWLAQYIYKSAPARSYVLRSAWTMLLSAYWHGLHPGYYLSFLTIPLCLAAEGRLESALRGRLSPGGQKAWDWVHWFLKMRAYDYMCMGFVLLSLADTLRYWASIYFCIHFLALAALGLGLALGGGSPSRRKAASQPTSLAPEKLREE
# UniProt P43243: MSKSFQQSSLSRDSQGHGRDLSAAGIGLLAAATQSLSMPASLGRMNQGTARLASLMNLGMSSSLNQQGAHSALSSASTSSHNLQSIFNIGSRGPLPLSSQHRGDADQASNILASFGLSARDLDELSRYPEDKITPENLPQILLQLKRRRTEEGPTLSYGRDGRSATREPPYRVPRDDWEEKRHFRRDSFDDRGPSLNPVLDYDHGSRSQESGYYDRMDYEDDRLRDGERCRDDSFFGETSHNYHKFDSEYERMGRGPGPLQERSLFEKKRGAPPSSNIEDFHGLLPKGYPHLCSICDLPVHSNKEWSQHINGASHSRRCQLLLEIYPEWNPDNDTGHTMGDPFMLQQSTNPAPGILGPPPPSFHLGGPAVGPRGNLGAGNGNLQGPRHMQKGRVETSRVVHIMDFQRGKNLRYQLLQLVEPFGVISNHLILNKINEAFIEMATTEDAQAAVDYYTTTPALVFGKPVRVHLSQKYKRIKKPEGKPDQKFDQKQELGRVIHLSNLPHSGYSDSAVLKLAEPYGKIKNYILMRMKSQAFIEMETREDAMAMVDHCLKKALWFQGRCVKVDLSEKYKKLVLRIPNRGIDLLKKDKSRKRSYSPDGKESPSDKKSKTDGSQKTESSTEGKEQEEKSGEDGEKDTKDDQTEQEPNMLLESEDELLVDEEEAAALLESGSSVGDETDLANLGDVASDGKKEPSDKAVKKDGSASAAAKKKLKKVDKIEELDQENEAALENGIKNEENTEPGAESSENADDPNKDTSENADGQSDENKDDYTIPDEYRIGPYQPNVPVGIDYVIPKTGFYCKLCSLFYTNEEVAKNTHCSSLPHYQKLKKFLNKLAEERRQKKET
# UniProt Q9HCC0: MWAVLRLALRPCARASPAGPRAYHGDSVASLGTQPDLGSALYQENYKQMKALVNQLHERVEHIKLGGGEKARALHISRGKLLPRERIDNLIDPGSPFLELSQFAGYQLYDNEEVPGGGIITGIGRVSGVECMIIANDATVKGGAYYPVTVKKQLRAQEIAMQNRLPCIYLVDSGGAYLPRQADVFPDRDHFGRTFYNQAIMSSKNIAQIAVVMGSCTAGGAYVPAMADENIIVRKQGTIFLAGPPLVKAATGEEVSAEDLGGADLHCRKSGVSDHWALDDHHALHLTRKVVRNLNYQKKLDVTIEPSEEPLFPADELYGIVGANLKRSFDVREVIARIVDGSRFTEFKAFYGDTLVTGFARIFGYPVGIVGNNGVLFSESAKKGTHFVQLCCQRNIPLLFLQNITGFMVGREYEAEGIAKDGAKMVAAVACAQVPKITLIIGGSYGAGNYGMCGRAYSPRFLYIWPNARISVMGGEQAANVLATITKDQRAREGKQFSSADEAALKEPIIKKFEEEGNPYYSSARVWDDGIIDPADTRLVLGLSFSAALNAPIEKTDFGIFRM
# UniProt Q96RQ3: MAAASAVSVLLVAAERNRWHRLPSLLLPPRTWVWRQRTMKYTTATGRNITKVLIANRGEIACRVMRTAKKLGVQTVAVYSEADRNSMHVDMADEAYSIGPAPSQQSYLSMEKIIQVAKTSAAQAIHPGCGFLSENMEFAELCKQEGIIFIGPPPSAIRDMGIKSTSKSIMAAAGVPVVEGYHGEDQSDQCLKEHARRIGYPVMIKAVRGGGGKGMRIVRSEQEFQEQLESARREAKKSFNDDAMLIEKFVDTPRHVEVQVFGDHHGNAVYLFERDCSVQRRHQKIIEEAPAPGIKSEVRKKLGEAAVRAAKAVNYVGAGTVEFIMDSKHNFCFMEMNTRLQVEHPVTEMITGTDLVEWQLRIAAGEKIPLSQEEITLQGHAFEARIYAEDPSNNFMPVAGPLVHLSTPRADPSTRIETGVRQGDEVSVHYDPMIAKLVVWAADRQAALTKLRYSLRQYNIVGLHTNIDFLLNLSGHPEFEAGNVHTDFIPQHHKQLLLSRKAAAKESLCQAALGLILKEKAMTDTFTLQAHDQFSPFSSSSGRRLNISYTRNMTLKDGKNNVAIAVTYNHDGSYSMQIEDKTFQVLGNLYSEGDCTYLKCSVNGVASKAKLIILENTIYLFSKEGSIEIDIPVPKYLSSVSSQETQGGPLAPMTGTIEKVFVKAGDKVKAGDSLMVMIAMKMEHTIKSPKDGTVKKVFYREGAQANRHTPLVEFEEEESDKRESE
# UniProt Q9BTT4: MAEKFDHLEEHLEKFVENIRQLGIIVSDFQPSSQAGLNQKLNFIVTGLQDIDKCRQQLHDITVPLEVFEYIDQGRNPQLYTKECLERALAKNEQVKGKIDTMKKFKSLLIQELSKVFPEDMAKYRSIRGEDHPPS
# UniProt Q08431: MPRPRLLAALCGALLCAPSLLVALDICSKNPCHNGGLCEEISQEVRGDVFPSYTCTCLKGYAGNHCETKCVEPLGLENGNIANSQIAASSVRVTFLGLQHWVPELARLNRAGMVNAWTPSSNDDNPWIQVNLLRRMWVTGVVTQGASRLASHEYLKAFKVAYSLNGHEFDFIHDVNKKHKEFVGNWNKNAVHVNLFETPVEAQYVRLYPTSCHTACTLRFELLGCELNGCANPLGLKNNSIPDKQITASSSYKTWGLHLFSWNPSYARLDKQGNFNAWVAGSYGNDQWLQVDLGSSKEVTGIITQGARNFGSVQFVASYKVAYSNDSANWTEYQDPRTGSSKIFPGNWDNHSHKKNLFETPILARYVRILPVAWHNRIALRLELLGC
# UniProt P31153, whole entry, looked up: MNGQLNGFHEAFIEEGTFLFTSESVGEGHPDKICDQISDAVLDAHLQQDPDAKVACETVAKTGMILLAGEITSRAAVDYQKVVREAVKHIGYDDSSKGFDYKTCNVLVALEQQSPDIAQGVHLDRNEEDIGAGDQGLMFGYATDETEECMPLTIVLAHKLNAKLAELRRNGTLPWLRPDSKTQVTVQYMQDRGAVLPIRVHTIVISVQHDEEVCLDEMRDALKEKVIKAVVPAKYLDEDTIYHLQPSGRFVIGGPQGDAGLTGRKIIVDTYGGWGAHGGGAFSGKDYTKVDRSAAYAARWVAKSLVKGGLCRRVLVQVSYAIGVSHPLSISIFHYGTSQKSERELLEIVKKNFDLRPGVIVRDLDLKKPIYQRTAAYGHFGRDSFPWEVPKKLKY
# UniProt P43121, whole entry, looked up: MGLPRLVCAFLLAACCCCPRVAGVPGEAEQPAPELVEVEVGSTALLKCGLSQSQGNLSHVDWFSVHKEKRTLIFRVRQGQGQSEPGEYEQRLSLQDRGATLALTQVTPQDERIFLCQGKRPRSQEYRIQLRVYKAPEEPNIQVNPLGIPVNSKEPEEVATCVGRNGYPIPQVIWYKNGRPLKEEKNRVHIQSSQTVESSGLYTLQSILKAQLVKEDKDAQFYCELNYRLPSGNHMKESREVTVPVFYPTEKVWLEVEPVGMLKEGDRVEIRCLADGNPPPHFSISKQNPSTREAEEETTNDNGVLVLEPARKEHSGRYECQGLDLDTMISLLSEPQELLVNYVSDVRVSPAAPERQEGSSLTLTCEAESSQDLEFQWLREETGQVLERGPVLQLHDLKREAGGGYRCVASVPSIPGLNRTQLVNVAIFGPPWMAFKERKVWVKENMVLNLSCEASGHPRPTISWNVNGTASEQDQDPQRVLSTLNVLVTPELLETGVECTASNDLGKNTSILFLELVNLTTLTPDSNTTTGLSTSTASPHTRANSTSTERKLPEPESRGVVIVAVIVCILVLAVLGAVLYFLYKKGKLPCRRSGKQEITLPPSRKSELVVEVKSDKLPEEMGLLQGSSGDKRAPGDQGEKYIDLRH
# UniProt Q8IWA4: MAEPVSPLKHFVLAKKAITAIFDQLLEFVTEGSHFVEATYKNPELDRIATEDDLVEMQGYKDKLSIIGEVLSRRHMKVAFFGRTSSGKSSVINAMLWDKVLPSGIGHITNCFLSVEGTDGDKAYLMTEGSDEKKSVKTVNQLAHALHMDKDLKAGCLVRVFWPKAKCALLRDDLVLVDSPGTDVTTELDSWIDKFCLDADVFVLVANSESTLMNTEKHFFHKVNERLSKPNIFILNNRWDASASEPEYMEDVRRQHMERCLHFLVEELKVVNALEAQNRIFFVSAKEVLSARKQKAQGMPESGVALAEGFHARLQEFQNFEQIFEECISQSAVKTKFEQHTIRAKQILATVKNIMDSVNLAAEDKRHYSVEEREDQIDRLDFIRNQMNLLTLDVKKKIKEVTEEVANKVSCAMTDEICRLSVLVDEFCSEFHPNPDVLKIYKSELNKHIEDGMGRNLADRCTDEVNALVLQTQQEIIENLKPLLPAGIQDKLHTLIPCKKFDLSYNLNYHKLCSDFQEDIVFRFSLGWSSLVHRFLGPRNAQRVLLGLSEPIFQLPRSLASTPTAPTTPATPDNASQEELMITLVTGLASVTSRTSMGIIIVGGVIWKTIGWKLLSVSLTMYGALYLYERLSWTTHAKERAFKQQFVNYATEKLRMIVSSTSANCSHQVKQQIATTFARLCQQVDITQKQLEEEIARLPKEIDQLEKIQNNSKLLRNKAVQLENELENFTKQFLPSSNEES
# UniProt P10620: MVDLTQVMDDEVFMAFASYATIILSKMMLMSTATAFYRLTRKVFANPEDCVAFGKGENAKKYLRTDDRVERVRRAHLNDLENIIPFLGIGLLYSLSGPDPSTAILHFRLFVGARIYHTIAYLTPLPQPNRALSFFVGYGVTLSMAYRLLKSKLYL
# UniProt Q9H944: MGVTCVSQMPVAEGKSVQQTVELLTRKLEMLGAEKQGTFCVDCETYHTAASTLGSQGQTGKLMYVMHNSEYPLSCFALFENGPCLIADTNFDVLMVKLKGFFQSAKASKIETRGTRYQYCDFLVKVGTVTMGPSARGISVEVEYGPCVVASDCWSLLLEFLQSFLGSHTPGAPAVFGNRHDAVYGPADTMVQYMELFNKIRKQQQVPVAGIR
# UniProt P40925: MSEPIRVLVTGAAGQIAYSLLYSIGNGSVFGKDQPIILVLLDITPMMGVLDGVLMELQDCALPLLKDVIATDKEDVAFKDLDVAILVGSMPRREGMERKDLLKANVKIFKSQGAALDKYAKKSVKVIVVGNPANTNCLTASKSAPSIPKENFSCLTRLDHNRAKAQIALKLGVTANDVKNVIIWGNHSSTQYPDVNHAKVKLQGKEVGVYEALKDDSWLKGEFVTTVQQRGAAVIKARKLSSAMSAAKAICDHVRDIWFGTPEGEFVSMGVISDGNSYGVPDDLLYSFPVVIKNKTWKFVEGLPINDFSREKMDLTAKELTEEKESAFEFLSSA
# UniProt Q14696: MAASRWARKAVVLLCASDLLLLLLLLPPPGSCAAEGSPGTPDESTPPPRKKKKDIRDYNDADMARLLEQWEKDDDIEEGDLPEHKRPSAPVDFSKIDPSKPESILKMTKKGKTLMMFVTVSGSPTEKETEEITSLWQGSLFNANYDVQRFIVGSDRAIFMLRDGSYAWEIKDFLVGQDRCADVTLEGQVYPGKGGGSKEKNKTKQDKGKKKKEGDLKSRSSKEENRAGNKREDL
# UniProt Q9NR56: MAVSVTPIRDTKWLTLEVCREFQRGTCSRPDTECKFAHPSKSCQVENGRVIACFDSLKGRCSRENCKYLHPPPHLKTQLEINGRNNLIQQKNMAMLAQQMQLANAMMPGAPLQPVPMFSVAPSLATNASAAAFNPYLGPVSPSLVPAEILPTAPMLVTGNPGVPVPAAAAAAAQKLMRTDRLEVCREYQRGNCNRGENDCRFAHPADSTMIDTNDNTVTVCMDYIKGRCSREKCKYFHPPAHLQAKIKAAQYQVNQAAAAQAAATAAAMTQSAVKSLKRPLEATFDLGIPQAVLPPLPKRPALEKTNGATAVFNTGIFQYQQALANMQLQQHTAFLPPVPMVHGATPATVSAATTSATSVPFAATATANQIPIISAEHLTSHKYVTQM
# UniProt Q9Y316: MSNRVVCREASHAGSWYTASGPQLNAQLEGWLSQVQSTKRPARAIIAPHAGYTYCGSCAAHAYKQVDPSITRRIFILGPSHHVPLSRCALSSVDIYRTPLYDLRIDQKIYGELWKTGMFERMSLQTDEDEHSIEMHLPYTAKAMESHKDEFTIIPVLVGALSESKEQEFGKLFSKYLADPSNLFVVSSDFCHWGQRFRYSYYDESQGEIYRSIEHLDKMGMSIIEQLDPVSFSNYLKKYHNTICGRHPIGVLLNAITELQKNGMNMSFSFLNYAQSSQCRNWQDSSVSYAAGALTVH
# Some of the results follow.
# Legend:
# Test in all cases: log2 fold change, soluble protein after heating vs DMSO (PISA); higher = thermal stabilisation; K562 cells, 10 uM, 30 min; active = over 0.2 and 3.5 SD of the protein, either way, in both replicates (recomputed)
# [1] = compound: NC(=O)Nc1cc(-c2cccc(F)c2)sc1C(=O)N[C@H]1CCCNC1
# Outline: (§1)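 Aliquots of K562 cells (2×10^6 cells/mL) treated with 10 μM compound for 30 min were heated for 3 min over 48°C-58°C. After pooling and extraction in PBS with 0.5% NP-40 at 4°C, soluble protein from a 21,000xg, 90 min spin was quantified by TMTpro 16plex LC-MS/MS with channel sums equalised. Thermal stability is expressed against control samples, from duplicates, as a log2 fold change.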
# [2] = compound: NC(=O)c1cnc(N[C@@H]2CCCC[C@@H]2N)nc1Nc1cccc(-n2nccn2)c1
# Outline: as §1
# [3] = compound: NC1(c2ccc(-c3nc4ccn5c(=O)[nH]nc5c4cc3-c3ccccc3)cc2)CCC1
# Outline: as §1
# [4] = compound: NCC(=O)Nc1ccc(-n2nc(C(F)(F)F)cc2-c2ccc3c(ccc4ccccc43)c2)cc1
# Outline: as §1
# entinostat = compound: Nc1ccccc1NC(=O)c1ccc(CNC(=O)OCc2cccnc2)cc1 [entinostat]
# Outline: as §1
# vorinostat = compound: O=C(CCCCCCC(=O)Nc1ccccc1)NO [vorinostat]
# Outline: as §1
# citarinostat = compound: O=C(CCCCCCNC(=O)c1cnc(N(c2ccccc2)c2ccccc2Cl)nc1)NO [citarinostat]
# Outline: as §1
# silmitasertib = compound: O=C(O)c1ccc2c(c1)nc(Nc1cccc(Cl)c1)c1ccncc12 [silmitasertib]
# Outline: as §1
# [5] = compound: O=C1NC(=O)C(c2cnc3ccccn23)=C1c1cn2c3c(cc(F)cc13)CN(C(=O)N1CCCCC1)CC2
# Outline: as §1
# [6] = compound: c1cc(OCCN2CCCCC2)cc(-c2n[nH]c3ccc(-c4nnc[nH]4)cc23)c1
# Outline: as §1
Target,log2 fold change [1],log2 fold change [2],log2 fold change [3],log2 fold change [4],log2 fold change (entinostat),log2 fold change (vorinostat),log2 fold change (citarinostat),log2 fold change (silmitasertib),log2 fold change [5],log2 fold change [6]
MBOAT7 (UniProt Q96N66),inactive: 0.005,inactive: -0.034,inactive: -0.029,inactive: -0.022,inactive: 0.011,inactive: 0.031,inactive: 0.026,inactive: 0.012,inactive: -0.032,inactive: -0.017
MEAF6 isoform 3 (UniProt Q9HAF1),inactive: -0.035,inactive: 0.049,inactive: 0.125,inactive: -0.099,inactive: -0.035,inactive: 0.082,inactive: 0.04,inactive: -0.006,inactive: 0.105,inactive: -0.155
MED13 (UniProt Q9UHV7),inactive: 0.06,inactive: 0.03,inactive: -0.108,inactive: 0.155,inactive: 0.241,inactive: -0.173,inactive: 0.231,inactive: 0.041,inactive: 0.139,inactive: -0.135
MGAT4B isoform 3 (UniProt Q9UQ53),inactive: -0.085,inactive: 0.027,inactive: -0.025,inactive: 0.032,inactive: 0.012,inactive: 0,inactive: -0.058,inactive: 0.262,inactive: -0.069,inactive: -0.003
MCFD2 (UniProt Q8NI22),inactive: 0.075,inactive: 0.359,inactive: 0.043,inactive: 0.178,inactive: 0.044,inactive: -0.114,inactive: -0.008,inactive: 0.008,inactive: -0.197,inactive: -0.035
MATR3 (UniProt P43243),inactive: 0.155,inactive: 0.13,inactive: -0.171,inactive: -0.269,inactive: 0.011,inactive: 0.021,inactive: -0.082,inactive: 0.203,inactive: 0.127,inactive: -0.048
MIA3 (UniProt Q5JRA6),inactive: -0.008,inactive: -0.008,inactive: -0.02,inactive: -0.002,inactive: 0.006,inactive: -0.014,inactive: 0.013,inactive: 0.043,inactive: -0.061,inactive: -0.027
MCCC2 (UniProt Q9HCC0),inactive: 0.047,inactive: -0.014,inactive: 0.036,inactive: 0.06,inactive: 0.005,inactive: -0.043,inactive: 0.083,inactive: 0.025,inactive: 0.006,inactive: -0.024
MCCC1 (UniProt Q96RQ3),inactive: -0.004,inactive: -0.013,inactive: -0.133,inactive: -0.026,inactive: 0.007,inactive: 0.003,inactive: -0.171,inactive: -0.052,inactive: -0.08,inactive: 0.011
MBTPS1 (UniProt Q14703),inactive: -0.003,inactive: -0.045,inactive: -0.072,inactive: -0.038,inactive: -0.082,inactive: 0.029,inactive: 0.165,inactive: 0.018,inactive: 0.107,inactive: -0.058
MDH2 (UniProt P40926),inactive: 0.011,inactive: 0.018,inactive: 0.052,inactive: 0.024,inactive: -0.025,inactive: -0.067,inactive: 0.014,inactive: -0.015,inactive: -0.008,inactive: 0.037
MED10 (UniProt Q9BTT4),inactive: -0.089,inactive: 0.05,inactive: 0.102,inactive: -0.026,inactive: 0.098,inactive: -0.073,inactive: -0.003,inactive: 0.043,inactive: 0.021,inactive: -0.112
MFSD1 isoform 6 (UniProt Q9H3U5),inactive: 0.02,inactive: -0.066,active: -0.308,inactive: -0.098,inactive: -0.019,inactive: -0.053,inactive: 0.03,inactive: -0.008,inactive: 0.067,inactive: 0.043
MFGE8 (UniProt Q08431),inactive: -0.163,inactive: -0.058,inactive: 0.049,inactive: 0.125,inactive: -0.082,inactive: 0.03,inactive: -0.036,inactive: 0.117,inactive: 0.007,inactive: -0.029
MAT2A (UniProt P31153),inactive: -0.023,inactive: 0.02,inactive: 0.005,inactive: 0.003,inactive: -0.04,inactive: -0.031,inactive: -0.013,inactive: -0.023,inactive: -0.065,inactive: 0.02
MCAM (UniProt P43121),inactive: -0.008,inactive: 0.036,inactive: 0.059,inactive: -0.021,inactive: -0.013,inactive: -0.022,inactive: 0.03,inactive: -0.011,inactive: -0.054,inactive: -0.028
MFN1 (UniProt Q8IWA4),inactive: -0.072,inactive: -0.171,inactive: -0.01,inactive: -0.224,inactive: 0.034,inactive: 0.021,inactive: 0.034,inactive: 0.102,inactive: -0.009,inactive: 0.02
MGST2 (UniProt Q99735),inactive: -0.067,inactive: 0.003,inactive: 0.06,inactive: 0.061,inactive: -0.047,inactive: -0.092,inactive: 0.006,inactive: 0.023,inactive: -0.285,inactive: 0.054
MGST1 (UniProt P10620),inactive: -0.025,inactive: -0.024,inactive: -0.035,inactive: 0.163,inactive: 0.031,inactive: 0.027,inactive: -0.065,inactive: 0.036,inactive: -0.086,inactive: 0.122
MED20 (UniProt Q9H944),inactive: -0.045,inactive: -0.053,inactive: -0.062,inactive: 0.015,inactive: 0.006,inactive: 0.077,inactive: 0.019,inactive: 0.01,inactive: -0.054,inactive: -0.073
MGAT1 (UniProt P26572),inactive: -0.005,inactive: 0.036,inactive: -0.01,inactive: -0.051,inactive: -0.001,inactive: 0.068,inactive: -0.028,inactive: -0.012,inactive: 0.019,inactive: -0.065
MDH1 isoform 3 (UniProt P40925),inactive: 0.038,inactive: 0.011,inactive: -0.004,inactive: 0.015,inactive: 0.003,inactive: 0.009,inactive: 0.008,inactive: -0.055,inactive: -0.004,inactive: 0.032
MESD (UniProt Q14696),inactive: -0.013,inactive: -0.032,inactive: -0.03,inactive: 0.005,inactive: -0.022,inactive: -0.05,inactive: 0.038,inactive: 0.026,inactive: -0.033,inactive: -0.049
MFSD10 (UniProt Q14728),inactive: 0.008,inactive: 0.03,inactive: 0.021,inactive: -0.034,inactive: -0.124,inactive: -0.144,inactive: 0.036,inactive: 0.024,inactive: 0.028,inactive: 0.025
MED16 (UniProt Q9Y2X0),inactive: 0.108,inactive: 0.021,inactive: -0.005,inactive: -0.044,inactive: -0.047,inactive: 0.107,inactive: -0.094,inactive: 0.026,inactive: 0.06,inactive: -0.117
MDN1 (UniProt Q9NU22),inactive: -0.002,inactive: -0.087,inactive: -0.138,inactive: -0.058,inactive: 0.112,inactive: 0.098,inactive: 0.075,inactive: -0.037,inactive: -0.032,inactive: 0.082
MGST3 (UniProt O14880),inactive: -0.04,inactive: -0.07,inactive: 0.076,inactive: 0.009,inactive: -0.047,inactive: -0.043,inactive: -0.005,inactive: -0.011,inactive: -0.025,inactive: -0.056
MBNL1 (UniProt Q9NR56),inactive: -0.017,inactive: 0.003,inactive: 0.01,inactive: 0,inactive: 0.01,inactive: -0.044,inactive: 0.001,inactive: 0.05,inactive: -0.011,inactive: 0
MEMO1 (UniProt Q9Y316),inactive: 0.017,inactive: -0.052,inactive: -0.117,inactive: 0.023,inactive: -0.015,inactive: 0.067,inactive: 0.022,inactive: 0,inactive: -0.043,inactive: 0.021
MCU (UniProt Q8NE86),inactive: 0.005,inactive: -0.059,inactive: -0.142,inactive: -0.131,inactive: 0.034,inactive: -0.013,inactive: 0.075,inactive: -0.007,inactive: -0.034,inactive: -0.052

# Taken from the listing for reference:
Target,log2 fold change [1],log2 fold change [2],log2 fold change [3],log2 fold change [4],log2 fold change (entinostat),log2 fold change (vorinostat),log2 fold change (citarinostat),log2 fold change (silmitasertib),log2 fold change [5],log2 fold change [6]
MCAM (UniProt P43121),inactive: -0.008,inactive: 0.036,inactive: 0.059,inactive: -0.021,inactive: -0.013,inactive: -0.022,inactive: 0.03,inactive: -0.011,inactive: -0.054,inactive: -0.028
MFN1 (UniProt Q8IWA4),inactive: -0.072,inactive: -0.171,inactive: -0.01,inactive: -0.224,inactive: 0.034,inactive: 0.021,inactive: 0.034,inactive: 0.102,inactive: -0.009,inactive: 0.02
